From the supplement of paper PMC10849652
The other results are listed elsewhere or left out.

By UniProt entry, the sequences of proteins in these tests, tags left out. Where a name states a change or a piece, a line headed by the entry shows the natural chain unless it says otherwise.
UniProt O00483, whole entry, looked up: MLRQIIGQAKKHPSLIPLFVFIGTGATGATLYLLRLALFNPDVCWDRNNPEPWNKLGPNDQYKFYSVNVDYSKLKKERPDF
UniProt O95139, whole entry, looked up: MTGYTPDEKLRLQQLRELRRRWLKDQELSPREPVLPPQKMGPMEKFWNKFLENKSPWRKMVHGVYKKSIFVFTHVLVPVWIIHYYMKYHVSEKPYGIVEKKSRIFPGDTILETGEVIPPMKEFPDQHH
UniProt O43920, whole entry, looked up: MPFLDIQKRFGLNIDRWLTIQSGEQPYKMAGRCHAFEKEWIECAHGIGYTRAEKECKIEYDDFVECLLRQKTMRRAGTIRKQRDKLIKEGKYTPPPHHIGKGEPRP
UniProt P41227: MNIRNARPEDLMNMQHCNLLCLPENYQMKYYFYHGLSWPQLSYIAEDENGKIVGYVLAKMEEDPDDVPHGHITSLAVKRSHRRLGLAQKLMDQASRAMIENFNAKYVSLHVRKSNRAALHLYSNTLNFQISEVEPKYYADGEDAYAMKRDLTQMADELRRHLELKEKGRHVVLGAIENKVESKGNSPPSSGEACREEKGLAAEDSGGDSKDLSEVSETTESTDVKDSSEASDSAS
UniProt Q6IA69: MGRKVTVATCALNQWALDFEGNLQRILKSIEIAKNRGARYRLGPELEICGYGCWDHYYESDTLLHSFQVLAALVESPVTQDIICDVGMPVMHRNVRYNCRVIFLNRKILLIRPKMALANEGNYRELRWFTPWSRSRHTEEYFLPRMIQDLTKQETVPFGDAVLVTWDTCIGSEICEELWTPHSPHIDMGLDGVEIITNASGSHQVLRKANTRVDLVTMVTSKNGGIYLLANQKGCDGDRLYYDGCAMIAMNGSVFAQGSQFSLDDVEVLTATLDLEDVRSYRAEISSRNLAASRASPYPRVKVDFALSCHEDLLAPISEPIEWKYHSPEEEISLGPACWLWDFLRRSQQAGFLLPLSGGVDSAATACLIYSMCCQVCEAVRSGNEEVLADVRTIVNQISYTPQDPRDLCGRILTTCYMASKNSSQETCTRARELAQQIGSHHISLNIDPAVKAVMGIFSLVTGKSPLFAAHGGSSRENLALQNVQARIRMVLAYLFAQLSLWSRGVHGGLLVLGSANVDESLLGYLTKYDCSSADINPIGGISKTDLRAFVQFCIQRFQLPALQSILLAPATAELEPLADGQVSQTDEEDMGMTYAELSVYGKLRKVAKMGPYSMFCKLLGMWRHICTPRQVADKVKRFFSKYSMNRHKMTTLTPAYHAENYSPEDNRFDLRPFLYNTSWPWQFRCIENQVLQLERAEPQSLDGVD
UniProt P55209: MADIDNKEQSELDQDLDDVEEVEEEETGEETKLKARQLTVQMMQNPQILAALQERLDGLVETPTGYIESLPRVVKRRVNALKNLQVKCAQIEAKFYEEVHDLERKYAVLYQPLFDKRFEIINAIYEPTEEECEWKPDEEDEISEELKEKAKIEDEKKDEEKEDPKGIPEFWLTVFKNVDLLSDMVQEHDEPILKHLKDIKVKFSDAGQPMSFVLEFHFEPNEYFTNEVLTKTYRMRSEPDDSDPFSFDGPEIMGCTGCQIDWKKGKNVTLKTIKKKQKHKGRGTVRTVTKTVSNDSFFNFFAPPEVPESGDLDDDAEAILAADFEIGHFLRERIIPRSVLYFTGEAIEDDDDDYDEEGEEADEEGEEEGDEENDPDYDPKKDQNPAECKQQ
UniProt Q8NC96: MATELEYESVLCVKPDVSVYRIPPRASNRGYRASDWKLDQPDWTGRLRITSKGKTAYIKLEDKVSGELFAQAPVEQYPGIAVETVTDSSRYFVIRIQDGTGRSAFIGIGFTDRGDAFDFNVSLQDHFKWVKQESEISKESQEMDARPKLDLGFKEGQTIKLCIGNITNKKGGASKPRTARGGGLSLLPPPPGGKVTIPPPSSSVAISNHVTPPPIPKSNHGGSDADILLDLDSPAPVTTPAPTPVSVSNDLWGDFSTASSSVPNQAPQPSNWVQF
UniProt O75376, whole entry, looked up: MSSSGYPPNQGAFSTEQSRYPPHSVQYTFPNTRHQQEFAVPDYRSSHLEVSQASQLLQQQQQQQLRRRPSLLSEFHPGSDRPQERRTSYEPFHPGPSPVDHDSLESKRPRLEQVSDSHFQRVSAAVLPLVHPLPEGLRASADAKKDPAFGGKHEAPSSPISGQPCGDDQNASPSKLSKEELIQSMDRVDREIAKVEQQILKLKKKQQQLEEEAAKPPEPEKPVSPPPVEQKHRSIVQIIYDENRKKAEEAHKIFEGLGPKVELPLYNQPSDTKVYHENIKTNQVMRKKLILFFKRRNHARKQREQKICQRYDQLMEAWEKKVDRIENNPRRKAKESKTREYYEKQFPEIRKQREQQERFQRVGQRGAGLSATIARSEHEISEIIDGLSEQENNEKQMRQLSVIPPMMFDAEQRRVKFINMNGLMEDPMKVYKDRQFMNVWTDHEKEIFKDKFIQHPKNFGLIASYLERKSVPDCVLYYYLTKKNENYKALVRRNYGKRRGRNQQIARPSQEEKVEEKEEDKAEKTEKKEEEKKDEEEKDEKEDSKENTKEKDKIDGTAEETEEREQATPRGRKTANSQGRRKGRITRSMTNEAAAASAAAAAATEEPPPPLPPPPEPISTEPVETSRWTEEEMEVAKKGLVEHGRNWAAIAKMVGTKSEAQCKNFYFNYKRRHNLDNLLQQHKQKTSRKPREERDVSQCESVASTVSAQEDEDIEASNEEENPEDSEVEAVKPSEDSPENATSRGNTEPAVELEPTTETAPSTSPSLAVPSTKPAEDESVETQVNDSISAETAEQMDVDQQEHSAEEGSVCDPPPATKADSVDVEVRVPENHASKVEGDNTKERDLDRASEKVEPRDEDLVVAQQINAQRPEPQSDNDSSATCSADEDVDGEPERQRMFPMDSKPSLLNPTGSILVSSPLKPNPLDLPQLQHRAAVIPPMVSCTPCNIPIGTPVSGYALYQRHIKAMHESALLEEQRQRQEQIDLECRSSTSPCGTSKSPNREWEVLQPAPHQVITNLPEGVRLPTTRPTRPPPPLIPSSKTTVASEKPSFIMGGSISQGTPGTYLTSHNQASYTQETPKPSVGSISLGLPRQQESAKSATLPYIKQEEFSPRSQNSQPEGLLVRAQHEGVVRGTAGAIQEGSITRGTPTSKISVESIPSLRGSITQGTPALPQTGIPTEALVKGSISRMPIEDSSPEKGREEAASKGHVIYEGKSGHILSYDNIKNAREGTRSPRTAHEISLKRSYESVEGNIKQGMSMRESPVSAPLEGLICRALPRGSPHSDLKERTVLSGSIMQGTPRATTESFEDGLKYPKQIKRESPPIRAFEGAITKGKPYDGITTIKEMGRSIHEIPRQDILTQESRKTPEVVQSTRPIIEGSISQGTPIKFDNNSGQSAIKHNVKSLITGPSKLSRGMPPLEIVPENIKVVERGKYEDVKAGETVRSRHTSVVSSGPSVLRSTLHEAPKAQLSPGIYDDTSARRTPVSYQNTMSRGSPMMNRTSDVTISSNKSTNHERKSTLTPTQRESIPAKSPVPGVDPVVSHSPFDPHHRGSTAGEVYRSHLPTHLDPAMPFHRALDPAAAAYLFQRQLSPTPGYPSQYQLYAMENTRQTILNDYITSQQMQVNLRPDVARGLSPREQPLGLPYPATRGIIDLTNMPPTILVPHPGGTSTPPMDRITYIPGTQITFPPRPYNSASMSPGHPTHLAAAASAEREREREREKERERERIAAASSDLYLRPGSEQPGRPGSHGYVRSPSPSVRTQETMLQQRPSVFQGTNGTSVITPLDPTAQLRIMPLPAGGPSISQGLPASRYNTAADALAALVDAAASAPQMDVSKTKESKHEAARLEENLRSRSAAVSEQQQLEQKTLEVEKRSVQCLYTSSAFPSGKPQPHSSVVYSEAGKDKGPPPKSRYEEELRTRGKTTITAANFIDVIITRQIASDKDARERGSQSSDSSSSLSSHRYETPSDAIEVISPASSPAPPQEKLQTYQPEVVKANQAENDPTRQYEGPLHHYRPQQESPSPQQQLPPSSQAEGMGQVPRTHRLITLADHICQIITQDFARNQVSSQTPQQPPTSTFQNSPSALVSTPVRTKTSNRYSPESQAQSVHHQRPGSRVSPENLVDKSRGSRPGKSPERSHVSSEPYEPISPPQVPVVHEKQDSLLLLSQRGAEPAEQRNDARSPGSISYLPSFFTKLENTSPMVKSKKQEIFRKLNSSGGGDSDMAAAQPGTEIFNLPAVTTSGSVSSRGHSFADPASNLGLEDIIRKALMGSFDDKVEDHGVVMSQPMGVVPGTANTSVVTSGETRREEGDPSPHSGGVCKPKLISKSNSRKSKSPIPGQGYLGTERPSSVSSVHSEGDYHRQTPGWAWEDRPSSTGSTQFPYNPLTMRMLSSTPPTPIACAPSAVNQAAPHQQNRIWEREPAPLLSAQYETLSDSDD
UniProt Q6XQN6: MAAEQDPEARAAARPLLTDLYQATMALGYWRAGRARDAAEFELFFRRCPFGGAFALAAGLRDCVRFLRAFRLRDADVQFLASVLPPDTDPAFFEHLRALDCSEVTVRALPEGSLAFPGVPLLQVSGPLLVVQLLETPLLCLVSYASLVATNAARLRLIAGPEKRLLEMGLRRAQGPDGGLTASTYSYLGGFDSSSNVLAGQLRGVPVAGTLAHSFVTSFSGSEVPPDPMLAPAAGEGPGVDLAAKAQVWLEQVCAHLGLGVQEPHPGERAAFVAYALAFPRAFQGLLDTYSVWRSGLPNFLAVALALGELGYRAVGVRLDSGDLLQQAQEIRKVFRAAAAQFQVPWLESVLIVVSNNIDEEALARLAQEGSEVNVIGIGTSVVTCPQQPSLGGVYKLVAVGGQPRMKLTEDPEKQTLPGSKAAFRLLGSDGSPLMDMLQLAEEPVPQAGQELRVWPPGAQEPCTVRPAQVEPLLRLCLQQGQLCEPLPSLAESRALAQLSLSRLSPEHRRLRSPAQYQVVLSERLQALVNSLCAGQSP
UniProt Q9Y5N5: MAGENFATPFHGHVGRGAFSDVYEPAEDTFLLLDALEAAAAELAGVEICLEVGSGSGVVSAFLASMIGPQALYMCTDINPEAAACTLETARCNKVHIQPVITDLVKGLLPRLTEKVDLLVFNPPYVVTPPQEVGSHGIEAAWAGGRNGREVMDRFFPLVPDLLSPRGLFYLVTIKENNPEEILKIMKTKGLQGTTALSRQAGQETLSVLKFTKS
UniProt O95299, whole entry, looked up: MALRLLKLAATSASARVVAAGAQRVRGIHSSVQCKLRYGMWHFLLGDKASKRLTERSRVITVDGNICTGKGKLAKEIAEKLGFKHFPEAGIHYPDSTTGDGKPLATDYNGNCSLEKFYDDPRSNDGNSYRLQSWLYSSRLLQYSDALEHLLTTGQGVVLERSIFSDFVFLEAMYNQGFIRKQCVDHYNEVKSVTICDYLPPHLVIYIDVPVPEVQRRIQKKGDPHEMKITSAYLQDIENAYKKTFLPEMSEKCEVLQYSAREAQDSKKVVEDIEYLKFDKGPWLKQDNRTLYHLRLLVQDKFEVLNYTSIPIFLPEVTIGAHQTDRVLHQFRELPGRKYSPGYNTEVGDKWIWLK
UniProt O76041: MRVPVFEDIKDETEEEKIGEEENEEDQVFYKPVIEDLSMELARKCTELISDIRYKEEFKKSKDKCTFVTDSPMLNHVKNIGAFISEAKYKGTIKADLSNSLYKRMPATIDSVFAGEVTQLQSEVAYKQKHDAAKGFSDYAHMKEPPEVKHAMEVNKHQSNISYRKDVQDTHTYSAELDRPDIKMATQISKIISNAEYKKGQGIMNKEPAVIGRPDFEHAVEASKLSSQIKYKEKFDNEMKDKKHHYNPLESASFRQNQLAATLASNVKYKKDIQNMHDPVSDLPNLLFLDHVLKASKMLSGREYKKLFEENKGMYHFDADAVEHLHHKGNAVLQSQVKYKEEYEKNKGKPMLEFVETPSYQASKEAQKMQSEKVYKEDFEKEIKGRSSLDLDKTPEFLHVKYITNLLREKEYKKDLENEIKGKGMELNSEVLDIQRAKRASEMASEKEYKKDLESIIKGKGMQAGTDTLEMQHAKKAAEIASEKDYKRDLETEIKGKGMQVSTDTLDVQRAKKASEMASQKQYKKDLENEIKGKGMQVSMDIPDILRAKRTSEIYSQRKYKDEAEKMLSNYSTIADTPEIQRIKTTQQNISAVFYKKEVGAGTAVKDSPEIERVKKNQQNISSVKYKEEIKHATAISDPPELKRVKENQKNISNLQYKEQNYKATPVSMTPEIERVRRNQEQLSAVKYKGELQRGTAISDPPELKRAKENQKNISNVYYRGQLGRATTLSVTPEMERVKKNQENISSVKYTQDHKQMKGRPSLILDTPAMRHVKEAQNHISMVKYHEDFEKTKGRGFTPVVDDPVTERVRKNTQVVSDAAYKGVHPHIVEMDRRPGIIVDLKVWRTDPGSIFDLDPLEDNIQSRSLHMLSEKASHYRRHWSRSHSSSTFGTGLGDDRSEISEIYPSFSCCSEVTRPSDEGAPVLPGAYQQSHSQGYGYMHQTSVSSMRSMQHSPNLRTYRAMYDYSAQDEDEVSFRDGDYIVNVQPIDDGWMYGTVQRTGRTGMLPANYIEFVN
UniProt O95182, whole entry, looked up: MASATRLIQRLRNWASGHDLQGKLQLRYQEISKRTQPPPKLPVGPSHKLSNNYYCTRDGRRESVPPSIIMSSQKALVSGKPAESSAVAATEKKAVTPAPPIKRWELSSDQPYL

compound: Cc1nc(Nc2n[nH]c3c2CN(C(=O)N[C@H](CN(C)C)c2ccccc2)C3(C)C)c2sccc2n1; experiment: log2 fold change, soluble protein after heating vs DMSO (PISA); higher = thermal stabilisation; K562 cells, 10 uM, 30 min; active = over 0.2 and 3.5 SD of the protein, either way, in both replicates (recomputed)
In short: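 K562 cells at 2×10^6 cells/mL were given 10 μM compound for 30 min. Aliquots then went through 3 min of heating across 48°C-58°C, were pooled, and were extracted in PBS with 0.5% NP-40 at 4°C, and the supernatant after 21,000xg for 90 min was quantified by TMTpro 16plex LC-MS/MS with channel sums equalised. Thermal stability relative to control samples, from duplicates, is given as log2 fold change.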

log2 fold change, inactive:
NDUFA4 (UniProt O00483) 0.02
MZT2A (UniProt Q6P582) -0.021
NDUFB6 (UniProt O95139) -0.029
NAA30 (UniProt Q147X3) 0.036
NDUFAF5 (UniProt Q5TEU4) 0.064
NEFH (UniProt P12036) -0.076
NCAPG2 isoform 2 (UniProt Q86XI2) -0.192
NDUFS5 (UniProt O43920) 0.032
NAA10 (UniProt P41227) -0.007
NDRG2 (UniProt Q9UN36) 0.031
NADSYN1 (UniProt Q6IA69) -0.015
NCOR2 (UniProt C9J0Q5) 0.004
NAP1L1 (UniProt P55209) -0.044
NECAP1 (UniProt Q8NC96) -0.043
NDUFA2 (UniProt O43678) 0.052
NCOR1 (UniProt O75376) -0.046
NAPRT (UniProt Q6XQN6) 0.009
NA, A0A0B4J2A0 -0.024
N6AMT1 (UniProt Q9Y5N5) 0.014
NDUFA10 (UniProt O95299) -0.017
NEBL isoform 2 (UniProt O76041) -0.046
NDUFA7 (UniProt O95182) -0.025
NAXD (UniProt Q8IW45) -0.02

A section of the results above, for reference:
log2 fold change, inactive:
NADSYN1 (UniProt Q6IA69) -0.015
NCOR2 (UniProt C9J0Q5) 0.004
